This is one part of the list.
What was measured:
Assay in all cases: log2 fold change, soluble protein after heating vs DMSO (PISA); higher = thermal stabilisation; K562 cells, 10 uM, 30 min; active = over 0.2 and 3.5 SD of the protein, either way, in both replicates (recomputed)
[1] = compound: C1=CC=C(C=C1)[C@H](COC2=CC3=C(C=C2)NC(=O)N3)NC(=O)C4=CC=CN(C4=O)CC5=CC(=C(C=C5)F)F
Procedure, shortened: (§1)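 Soluble protein was quantified by TMTpro 16plex LC-MS/MS after channel sums were equalised. It was obtained as the supernatant after 21,000xg for 90 min from pooled aliquots of K562 cells (2×10^6 cells/mL, 10 μM compound, 30 min) heated for 3 min across 48°C-58°C and extracted in PBS with 0.5% NP-40 at 4°C. Thermal stability values are relative to control samples and come from duplicates. They are given as log2 fold changes.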

Protein sequences, listed by entry. Tags and fused reporters are not part of them. Lines headed by an entry give the natural chain unless they say otherwise; changes in a name come on top.
UniProt Q9HCK8: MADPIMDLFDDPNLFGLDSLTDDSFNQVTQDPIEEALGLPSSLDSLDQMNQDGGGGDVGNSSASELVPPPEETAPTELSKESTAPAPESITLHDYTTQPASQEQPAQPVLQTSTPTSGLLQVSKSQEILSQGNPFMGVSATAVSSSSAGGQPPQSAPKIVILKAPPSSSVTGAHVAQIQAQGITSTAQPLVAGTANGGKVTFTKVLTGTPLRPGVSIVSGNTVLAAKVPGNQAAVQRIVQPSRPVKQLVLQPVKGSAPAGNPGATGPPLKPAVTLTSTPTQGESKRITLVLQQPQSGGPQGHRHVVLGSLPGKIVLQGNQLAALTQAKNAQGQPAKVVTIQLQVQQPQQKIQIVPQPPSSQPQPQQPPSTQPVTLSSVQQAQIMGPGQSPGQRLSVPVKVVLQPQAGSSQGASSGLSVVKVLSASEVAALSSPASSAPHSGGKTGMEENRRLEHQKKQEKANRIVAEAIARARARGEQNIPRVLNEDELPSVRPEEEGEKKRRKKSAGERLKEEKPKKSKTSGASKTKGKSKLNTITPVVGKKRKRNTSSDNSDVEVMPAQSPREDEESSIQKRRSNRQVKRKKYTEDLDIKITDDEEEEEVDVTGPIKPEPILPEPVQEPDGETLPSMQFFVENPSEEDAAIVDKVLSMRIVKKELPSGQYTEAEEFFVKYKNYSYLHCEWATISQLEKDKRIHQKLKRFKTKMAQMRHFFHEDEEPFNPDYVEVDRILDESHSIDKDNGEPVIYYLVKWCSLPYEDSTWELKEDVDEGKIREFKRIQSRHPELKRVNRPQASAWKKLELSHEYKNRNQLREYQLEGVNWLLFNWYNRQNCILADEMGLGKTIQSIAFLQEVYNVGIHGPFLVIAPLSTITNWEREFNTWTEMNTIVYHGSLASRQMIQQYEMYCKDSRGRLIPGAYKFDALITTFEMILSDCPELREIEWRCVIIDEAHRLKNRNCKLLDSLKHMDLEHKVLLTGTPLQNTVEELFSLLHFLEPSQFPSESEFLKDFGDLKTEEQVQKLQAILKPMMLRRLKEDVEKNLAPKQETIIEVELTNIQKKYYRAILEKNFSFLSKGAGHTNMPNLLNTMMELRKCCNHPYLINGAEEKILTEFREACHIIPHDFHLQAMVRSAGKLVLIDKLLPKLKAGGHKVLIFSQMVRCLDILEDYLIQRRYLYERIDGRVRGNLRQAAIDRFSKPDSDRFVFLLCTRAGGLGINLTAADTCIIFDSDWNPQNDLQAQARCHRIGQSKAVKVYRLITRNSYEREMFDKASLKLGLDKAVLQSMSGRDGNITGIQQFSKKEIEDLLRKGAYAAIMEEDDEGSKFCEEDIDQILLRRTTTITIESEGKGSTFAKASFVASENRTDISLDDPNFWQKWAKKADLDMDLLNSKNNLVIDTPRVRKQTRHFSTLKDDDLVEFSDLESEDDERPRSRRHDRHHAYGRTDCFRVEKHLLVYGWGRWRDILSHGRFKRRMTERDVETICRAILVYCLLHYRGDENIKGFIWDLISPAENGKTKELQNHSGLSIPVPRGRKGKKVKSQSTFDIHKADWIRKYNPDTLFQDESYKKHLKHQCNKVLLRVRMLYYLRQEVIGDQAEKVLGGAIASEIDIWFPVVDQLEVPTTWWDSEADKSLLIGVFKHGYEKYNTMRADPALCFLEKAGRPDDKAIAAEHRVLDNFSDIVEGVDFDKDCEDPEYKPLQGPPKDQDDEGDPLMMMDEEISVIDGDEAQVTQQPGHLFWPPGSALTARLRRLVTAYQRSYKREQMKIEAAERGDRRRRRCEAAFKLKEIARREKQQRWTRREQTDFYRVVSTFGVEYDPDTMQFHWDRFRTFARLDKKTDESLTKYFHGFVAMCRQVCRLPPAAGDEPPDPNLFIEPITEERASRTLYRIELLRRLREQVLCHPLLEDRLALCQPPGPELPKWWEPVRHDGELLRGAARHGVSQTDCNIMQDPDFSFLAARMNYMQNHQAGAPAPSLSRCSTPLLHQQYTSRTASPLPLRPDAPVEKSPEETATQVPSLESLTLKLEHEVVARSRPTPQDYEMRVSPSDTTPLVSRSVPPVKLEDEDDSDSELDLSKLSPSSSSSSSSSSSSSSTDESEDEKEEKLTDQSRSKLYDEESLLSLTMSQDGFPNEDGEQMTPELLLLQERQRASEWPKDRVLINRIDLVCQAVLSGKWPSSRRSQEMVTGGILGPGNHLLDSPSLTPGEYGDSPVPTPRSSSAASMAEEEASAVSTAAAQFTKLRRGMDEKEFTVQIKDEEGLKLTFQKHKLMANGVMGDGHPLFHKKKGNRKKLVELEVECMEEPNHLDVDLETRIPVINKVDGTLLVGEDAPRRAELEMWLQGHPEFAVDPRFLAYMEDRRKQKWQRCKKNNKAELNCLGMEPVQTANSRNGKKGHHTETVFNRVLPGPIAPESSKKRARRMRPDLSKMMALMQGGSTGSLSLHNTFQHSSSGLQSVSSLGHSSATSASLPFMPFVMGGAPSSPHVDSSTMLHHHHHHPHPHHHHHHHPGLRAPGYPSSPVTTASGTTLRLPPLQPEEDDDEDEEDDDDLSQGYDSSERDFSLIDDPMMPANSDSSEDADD
UniProt P49918: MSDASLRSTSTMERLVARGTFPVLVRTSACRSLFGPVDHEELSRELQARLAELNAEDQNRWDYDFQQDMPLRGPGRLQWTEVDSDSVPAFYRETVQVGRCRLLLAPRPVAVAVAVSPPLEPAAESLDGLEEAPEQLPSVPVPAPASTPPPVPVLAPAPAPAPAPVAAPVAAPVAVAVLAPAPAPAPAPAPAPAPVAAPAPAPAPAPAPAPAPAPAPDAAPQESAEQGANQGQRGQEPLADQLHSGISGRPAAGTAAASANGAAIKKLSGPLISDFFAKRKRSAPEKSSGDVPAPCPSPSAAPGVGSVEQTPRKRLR
UniProt Q5SW79: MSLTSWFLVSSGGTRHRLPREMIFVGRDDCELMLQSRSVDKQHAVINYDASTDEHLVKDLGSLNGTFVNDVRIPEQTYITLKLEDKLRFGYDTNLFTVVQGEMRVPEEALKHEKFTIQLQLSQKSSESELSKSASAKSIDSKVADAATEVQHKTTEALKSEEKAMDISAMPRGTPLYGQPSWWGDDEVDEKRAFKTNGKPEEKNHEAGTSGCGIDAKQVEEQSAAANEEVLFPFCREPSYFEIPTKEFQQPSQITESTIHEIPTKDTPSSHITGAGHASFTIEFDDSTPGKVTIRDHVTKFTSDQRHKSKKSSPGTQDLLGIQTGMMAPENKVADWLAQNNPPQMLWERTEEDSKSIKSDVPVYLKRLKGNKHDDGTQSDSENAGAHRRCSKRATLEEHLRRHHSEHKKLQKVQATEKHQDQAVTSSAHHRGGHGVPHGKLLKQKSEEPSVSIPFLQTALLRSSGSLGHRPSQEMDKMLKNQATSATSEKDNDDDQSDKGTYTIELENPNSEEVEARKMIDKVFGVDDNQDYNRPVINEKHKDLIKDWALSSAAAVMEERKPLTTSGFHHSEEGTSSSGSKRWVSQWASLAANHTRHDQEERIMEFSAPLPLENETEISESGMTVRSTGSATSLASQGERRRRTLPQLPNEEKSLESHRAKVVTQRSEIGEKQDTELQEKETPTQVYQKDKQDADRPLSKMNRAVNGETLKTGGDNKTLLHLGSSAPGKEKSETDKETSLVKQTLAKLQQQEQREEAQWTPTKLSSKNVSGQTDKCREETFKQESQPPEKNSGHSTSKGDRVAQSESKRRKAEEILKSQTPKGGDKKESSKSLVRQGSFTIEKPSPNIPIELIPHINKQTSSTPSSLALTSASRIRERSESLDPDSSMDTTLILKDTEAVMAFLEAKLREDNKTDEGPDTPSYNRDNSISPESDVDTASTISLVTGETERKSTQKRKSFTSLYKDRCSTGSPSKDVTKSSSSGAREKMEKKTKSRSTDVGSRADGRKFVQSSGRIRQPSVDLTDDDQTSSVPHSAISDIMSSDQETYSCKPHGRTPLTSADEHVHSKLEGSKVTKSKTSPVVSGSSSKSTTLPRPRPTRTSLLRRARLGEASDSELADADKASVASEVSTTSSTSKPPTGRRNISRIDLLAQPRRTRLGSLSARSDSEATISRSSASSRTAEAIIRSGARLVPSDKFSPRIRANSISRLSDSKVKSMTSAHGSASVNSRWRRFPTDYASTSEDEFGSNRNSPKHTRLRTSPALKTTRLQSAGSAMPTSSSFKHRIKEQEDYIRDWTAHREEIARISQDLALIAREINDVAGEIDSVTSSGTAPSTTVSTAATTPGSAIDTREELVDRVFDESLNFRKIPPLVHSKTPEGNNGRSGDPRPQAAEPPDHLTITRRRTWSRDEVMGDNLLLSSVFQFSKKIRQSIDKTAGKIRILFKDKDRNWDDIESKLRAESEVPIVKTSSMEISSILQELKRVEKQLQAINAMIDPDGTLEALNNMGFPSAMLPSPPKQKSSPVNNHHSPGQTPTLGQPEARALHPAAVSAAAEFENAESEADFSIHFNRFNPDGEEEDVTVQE
UniProt O14757: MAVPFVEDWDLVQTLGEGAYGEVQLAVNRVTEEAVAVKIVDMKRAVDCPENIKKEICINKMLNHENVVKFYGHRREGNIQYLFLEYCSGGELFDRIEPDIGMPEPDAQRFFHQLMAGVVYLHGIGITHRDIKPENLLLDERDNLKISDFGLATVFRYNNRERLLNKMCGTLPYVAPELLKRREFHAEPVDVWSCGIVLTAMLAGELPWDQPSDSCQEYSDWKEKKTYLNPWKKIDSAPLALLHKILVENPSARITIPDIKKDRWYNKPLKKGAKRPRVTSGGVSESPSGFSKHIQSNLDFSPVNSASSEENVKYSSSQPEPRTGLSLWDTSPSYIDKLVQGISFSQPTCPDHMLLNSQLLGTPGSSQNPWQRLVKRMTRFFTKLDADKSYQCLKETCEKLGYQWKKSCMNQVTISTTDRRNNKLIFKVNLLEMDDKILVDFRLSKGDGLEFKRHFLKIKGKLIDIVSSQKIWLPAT
UniProt Q8N2Z9: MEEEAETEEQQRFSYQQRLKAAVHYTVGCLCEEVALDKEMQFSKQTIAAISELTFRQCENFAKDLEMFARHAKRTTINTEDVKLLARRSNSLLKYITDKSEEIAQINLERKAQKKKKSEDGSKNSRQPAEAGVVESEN
UniProt Q9HD42: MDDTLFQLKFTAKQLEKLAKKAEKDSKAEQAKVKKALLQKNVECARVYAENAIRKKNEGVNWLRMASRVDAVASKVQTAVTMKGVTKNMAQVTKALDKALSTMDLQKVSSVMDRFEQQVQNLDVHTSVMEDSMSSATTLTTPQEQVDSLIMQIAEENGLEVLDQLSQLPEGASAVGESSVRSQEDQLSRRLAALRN
UniProt Q96JB5: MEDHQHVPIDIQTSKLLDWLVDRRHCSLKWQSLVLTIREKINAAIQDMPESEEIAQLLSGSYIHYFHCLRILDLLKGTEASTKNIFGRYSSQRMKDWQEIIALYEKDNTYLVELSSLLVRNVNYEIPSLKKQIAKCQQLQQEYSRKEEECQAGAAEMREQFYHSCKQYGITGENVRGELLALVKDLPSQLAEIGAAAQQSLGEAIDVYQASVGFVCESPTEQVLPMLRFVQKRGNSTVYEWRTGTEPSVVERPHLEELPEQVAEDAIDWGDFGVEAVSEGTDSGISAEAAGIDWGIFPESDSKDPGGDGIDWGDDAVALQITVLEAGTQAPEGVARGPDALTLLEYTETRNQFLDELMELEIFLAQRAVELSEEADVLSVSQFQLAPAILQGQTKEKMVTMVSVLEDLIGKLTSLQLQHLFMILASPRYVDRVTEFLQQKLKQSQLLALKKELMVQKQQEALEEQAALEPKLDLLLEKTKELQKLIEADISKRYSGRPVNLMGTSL
UniProt Q9H3Q1: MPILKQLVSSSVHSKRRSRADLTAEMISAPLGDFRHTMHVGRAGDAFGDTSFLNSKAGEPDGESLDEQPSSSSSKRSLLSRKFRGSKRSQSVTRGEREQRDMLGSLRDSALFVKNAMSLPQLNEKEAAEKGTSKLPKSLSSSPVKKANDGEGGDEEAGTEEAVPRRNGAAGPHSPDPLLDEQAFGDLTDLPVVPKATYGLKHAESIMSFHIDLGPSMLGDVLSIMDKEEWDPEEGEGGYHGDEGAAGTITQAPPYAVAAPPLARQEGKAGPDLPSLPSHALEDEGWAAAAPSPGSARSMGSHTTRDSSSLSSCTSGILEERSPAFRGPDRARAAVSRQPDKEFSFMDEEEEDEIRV
UniProt Q96G23: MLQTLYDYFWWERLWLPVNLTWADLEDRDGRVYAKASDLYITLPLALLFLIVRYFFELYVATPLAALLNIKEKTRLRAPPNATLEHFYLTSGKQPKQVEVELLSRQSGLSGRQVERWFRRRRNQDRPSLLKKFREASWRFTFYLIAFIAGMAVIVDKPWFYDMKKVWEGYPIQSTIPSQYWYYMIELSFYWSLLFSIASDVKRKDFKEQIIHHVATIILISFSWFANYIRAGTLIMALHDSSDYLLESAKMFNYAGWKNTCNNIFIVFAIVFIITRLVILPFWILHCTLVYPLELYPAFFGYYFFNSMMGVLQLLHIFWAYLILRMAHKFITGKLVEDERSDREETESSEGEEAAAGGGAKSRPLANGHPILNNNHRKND

[2] = compound: CC1=C(SC2=C1C(=N[C@H](C3=NN=C(N32)C)CC(=O)N)C4=CC=C(C=C4)Cl)C
Procedure, shortened: as §1

[3] = compound: CC1=C2C(=CC=C1)N=C(N(C2=O)C3=CC=CC=C3C)CN4C=NC5=C(N=CN=C54)N
Procedure, shortened: as §1

[4] = compound: Cc1sc2c(c1C)C(c1ccc(Cl)cc1)=N[C@@H](CC(=O)OC(C)(C)C)c1nnc(C)n1-2
Procedure, shortened: as §1

[5] = compound: c1ccc([C@@H]2C[C@H]2NC2CCNCC2)cc1
Procedure, shortened: as §1

Measured: log2 fold change

CHD8 (UniProt Q9HCK8)
inactive: [1] 0.122

CDK1 (UniProt P06493)
inactive: [1] -0.019 | [2] 0.036 | [3] 0.003 | [4] 0.019 | [5] 0.037

CEMIP2 (UniProt Q9UHN6)
inactive: [1] -0.03 | [2] -0.017 | [3] 0.08 | [4] -0.04 | [5] 0.081

CDCP1 (UniProt Q9H5V8)
inactive: [1] -0.033 | [2] 0.055 | [3] -0.005 | [4] 0.021 | [5] 0.131

CHKB (UniProt Q9Y259)
inactive: [1] -0.043 | [2] -0.041 | [3] 0.044 | [4] 0.128 | [5] 0.135

CETN3 (UniProt O15182)
inactive: [1] 0.019 | [2] -0.055 | [3] 0.109 | [4] 0.008 | [5] -0.014

CHD6 (UniProt Q8TD26)
inactive: [1] 0.047 | [2] 0.077 | [3] -0.001 | [4] 0.21 | [5] 0.248

CHEK2 isoform 9 (UniProt O96017)
inactive: [1] -0.04 | [2] 0.034 | [3] 0.036 | [4] -0.094 | [5] -0.035

CFAP97 (UniProt Q9P2B7)
inactive: [1] 0.055 | [2] -0.304 | [3] -0.085 | [4] 0.094 | [5] 0.045

CFH (UniProt P08603)
inactive: [1] 0 | [2] -0.097 | [3] -0.006 | [4] 0.043 | [5] 0.014

CERT isoform 3 (UniProt Q9Y5P4)
inactive: [1] 0.102 | [2] 0.029 | [3] 0.066 | [4] 0.14 | [5] -0.028

CDC42BPA isoform 6 (UniProt Q5VT25)
inactive: [1] -0.101 | [2] -0.039 | [3] 0.083 | [4] 0.031 | [5] 0.069

CEP250 (UniProt Q9BV73)
inactive: [1] 0.124 | [2] -0.074 | [3] -0.029 | [4] 0.045 | [5] 0.054

CHMP2A (UniProt O43633)
inactive: [1] -0.011 | [2] 0.02 | [3] -0.001 | [4] -0.031 | [5] 0.007

CDKN1C (UniProt P49918)
inactive: [1] -0.227

CDK11B (UniProt P21127)
inactive: [1] -0.05 | [2] 0.015 | [3] 0.137 | [4] -0.01 | [5] 0.059

CHERP (UniProt Q8IWX8)
inactive: [1] -0.023 | [2] -0.07 | [3] 0.008 | [4] 0.101 | [5] 0.018

CEP170 isoform 3 (UniProt Q5SW79)
inactive: [1] 0.204

CEPT1 (UniProt Q9Y6K0)
inactive: [1] -0.064 | [2] 0.105 | [3] 0.074 | [4] -0.121 | [5] -0.054

CDKN2AIP (UniProt Q9NXV6)
inactive: [1] -0.036 | [2] -0.044 | [3] -0.008 | [4] 0.021 | [5] -0.014

CERS5 (UniProt Q8N5B7)
inactive: [1] -0.014 | [2] -0.046 | [3] -0.008 | [4] -0.035 | [5] -0.032

CDYL (UniProt Q9Y232)
inactive: [1] -0.012 | [2] -0.005 | [3] -0.084 | [4] 0.048 | [5] 0.042

CHEK1 (UniProt O14757)
inactive: [1] 0.006 | [2] 0.065 | [3] 0.087 | [4] 0.025 | [5] 0.01

CEP83 (UniProt Q9Y592)
inactive: [1] 0.131

CDK5 (UniProt Q00535)
inactive: [1] -0.015 | [2] 0.087 | [3] -0.003 | [4] -0.023 | [5] -0.005

CENPS (UniProt Q8N2Z9)
inactive: [1] -0.004 | [2] 0.046 | [3] 0.094 | [4] -0.014 | [5] -0.047

CGGBP1 (UniProt Q9UFW8)
inactive: [1] -0.055 | [2] -0.035 | [3] 0.017 | [4] 0.012 | [5] 0.048

CHD5 (UniProt Q8TDI0)
inactive: [1] -0.006 | [2] 0.041 | [3] 0.188 | [4] -0.042 | [5] 0.012

CDV3 (UniProt Q9UKY7)
inactive: [1] 0.008 | [2] 0.03 | [3] 0.003 | [4] -0.005 | [5] -0.007

CEP192 (UniProt Q8TEP8)
inactive: [1] -0.036 | [2] 0.073 | [3] 0.029 | [4] -0.028 | [5] 0.084

CFDP1 (UniProt Q9UEE9)
inactive: [1] 0.06 | [2] 0.017 | [3] 0.058 | [4] -0.01 | [5] 0.03

CHMP1A (UniProt Q9HD42)
inactive: [1] 0.005 | [2] 0.022 | [3] 0.014 | [4] 0.012 | [5] -0.008

CDK2AP1 (UniProt O14519)
inactive: [1] 0.059

CFAP20 (UniProt Q9Y6A4)
inactive: [1] 0.059 | [2] -0.035 | [3] -0.016 | [4] 0.065 | [5] 0.041

CHAMP1 (UniProt Q96JM3)
inactive: [1] -0.073 | [2] 0.044 | [3] 0.022 | [4] -0.051 | [5] -0.006

CDC42BPB (UniProt Q9Y5S2)
inactive: [1] -0.114 | [2] -0.031 | [3] 0.009 | [4] 0.025 | [5] -0.004

CHML (UniProt P26374)
inactive: [1] -0.044 | [2] 0.075 | [3] 0.065 | [4] -0.036 | [5] 0.007

CETN2 (UniProt P41208)
inactive: [1] 0.027 | [2] 0.046 | [3] -0.012 | [4] 0.06 | [5] 0.08

CDK5RAP3 isoform 4 (UniProt Q96JB5)
inactive: [1] -0.042 | [2] 0.054 | [3] 0.099 | [4] 0 | [5] -0.05

CEP120 (UniProt Q8N960)
inactive: [1] 0.045 | [2] 0.526 | [3] 0.046 | [4] -0.009 | [5] -0.416

CDK2 (UniProt P24941)
inactive: [1] 0.005 | [2] 0.035 | [3] 0.07 | [4] -0.037 | [5] -0.004

CDK8 (UniProt P49336)
inactive: [1] 0 | [2] -0.043 | [3] 0.018 | [4] 0.035 | [5] -0.129

CEP170 (UniProt Q5SW79)
inactive: [1] 0.027 | [2] -0.096 | [3] -0.057 | [4] 0.16 | [5] -0.019

CEP128 (UniProt Q6ZU80)
inactive: [1] -0.039 | [2] 0.099 | [3] 0.216 | [4] 0.104 | [5] 0.041

CFL2 (UniProt Q9Y281)
inactive: [1] 0.01 | [2] 0.007 | [3] 0.178 | [4] -0.04 | [5] -0.055

CEP76 (UniProt Q8TAP6)
inactive: [1] 0.079 | [2] 0.067 | [3] 0.087 | [4] 0.013 | [5] 0.084

Copied from the entries so far (two entries):
CDK8 (UniProt P49336)
inactive: [1] 0 | [2] -0.043 | [3] 0.018 | [4] 0.035 | [5] -0.129

CEP170 (UniProt Q5SW79)
inactive: [1] 0.027 | [2] -0.096 | [3] -0.057 | [4] 0.16 | [5] -0.019

(listing goes on)

CDC42EP4 (UniProt Q9H3Q1)
inactive: [1] -0.014 | [2] 0.041 | [3] -0.28 | [4] 0.004 | [5] -0.048

CDK12 (UniProt Q9NYV4)
inactive: [1] 0.102 | [2] -0.425 | [3] -0.103 | [4] 0.112 | [5] 0.008

CHMP2B (UniProt Q9UQN3)
inactive: [1] 0.008 | [2] 0.032 | [3] -0.017 | [4] -0.013 | [5] -0.007

CENPE (UniProt Q02224)
inactive: [1] -0.005 | [2] -0.139 | [3] 0.049 | [4] -0.001 | [5] -0.362

CDKAL1 (UniProt Q5VV42)
inactive: [1] -0.054 | [2] 0.001 | [3] 0.023 | [4] 0.012 | [5] -0.12

CELF1 isoform 4 (UniProt Q92879)
inactive: [1] -0.076 | [2] -0.002 | [3] 0.096 | [4] -0.035 | [5] -0.045

Quoted at random: two entries already listed, in no set order.
CENPE (UniProt Q02224)
inactive: [1] -0.005 | [2] -0.139 | [3] 0.049 | [4] -0.001 | [5] -0.362

CDK12 (UniProt Q9NYV4)
inactive: [1] 0.102 | [2] -0.425 | [3] -0.103 | [4] 0.112 | [5] 0.008

(list continues)

CDC42SE2 (UniProt Q9NRR3)
inactive: [1] -0.039 | [2] 0.175 | [3] -0.012 | [4] -0.102 | [5] 0.081

CERS2 (UniProt Q96G23)
inactive: [1] -0.033 | [2] 0.035 | [3] -0.012 | [4] -0.036 | [5] 0.048

CDC42EP1 (UniProt Q00587)
inactive: [1] -0.067 | [2] 0.107 | [3] 0.041 | [4] 0.043 | [5] -0.029

CDCA5 (UniProt Q96FF9)
inactive: [1] -0.043 | [2] 0.022 | [3] 0.034 | [4] 0.054 | [5] -0.031
